The values below come from PMC13032676, “PGM1 deficiency is linked to sarcomeric and mitochondrial dysfunction in patient-derived iPSC-cardiomyocytes” (Journal of Translational Medicine, 2026).

No constants are given. Whether binding was seen depends on the method and setting. Some entries that bind do so weakly or less than the wild type. Where a sequence is shown, tags or fusion partners need not be part of it.

The assay deals with T1, Phosphoglucomutase-1 (human PGM1), recombinant (human) (UniProt P36871).
T1 sequence (chain, RED-tris-NTA dye bound to the His6 tag): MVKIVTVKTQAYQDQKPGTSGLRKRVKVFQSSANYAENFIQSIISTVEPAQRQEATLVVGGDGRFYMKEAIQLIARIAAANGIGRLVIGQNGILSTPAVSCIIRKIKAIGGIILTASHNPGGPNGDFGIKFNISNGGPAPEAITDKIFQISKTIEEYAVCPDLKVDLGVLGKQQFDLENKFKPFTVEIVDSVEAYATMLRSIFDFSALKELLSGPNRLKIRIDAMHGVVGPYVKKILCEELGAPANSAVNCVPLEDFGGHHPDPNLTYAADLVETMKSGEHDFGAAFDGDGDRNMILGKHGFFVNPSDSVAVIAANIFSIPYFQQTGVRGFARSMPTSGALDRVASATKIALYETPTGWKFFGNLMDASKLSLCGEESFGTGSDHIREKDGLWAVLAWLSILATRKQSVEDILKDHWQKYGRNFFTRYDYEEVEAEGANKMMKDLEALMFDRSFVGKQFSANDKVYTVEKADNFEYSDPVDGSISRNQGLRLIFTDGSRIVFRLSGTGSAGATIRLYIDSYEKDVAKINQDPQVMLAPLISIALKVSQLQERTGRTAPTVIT
The experiment in a line: MST; PGM1 labelled on its His6 tag with RED-tris-NTA, 50 nM in all tubes; peptide in a 16-step serial dilution, 375 mM to 11.4 nM as printed; 10 min incubation in the dark; standard capillaries, Monolith NT.115, 22 °C, 40% excitation power, 40% MST power; Kd by MO.Affinity v.2.2.4; both purified.

Turning to SSQPRQYNNPIGLYSAEILREMAQMY [ZM peptide of ZASP/Cypher (LDB3) with the dilated cardiomyopathy-associated T206I mutation, 26-mer], the binding result is on record as “binds”. The entry for SSQPRQYNNPIGLYSAETLREMAQMY [Wild-type peptide representing the conserved Zasp motif (ZM) of ZASP/Cypher (LDB3), 26-mer] is “binds”.
